{"source": "paper PMC10131585", "about": "“Computational design of a cyclic peptide that inhibits the CTLA4 immune checkpoint” (RSC Medicinal Chemistry, 2023)", "key": {"[1]": {"tested_on": "Lewis lung carcinoma (LLC) cells", "experiment": "Cytotoxicity of antigen-primed CD8+ T cells to LLC cells in co-culture (flow cytometry)", "format": "cell-based, mouse", "details": "for Ratio of dead LLC cells to total LLC cells: mean ± SD (n = 2); for Effect in co-culture of LLC and antigen-primed T cells (in words): LLC cells with antigen-primed CD8+ T cells"}, "[2]": {"tested_on": "LLC tumors in mouse lungs", "experiment": "LLC mouse lung allograft model", "format": "in vivo"}, "[3]": {"details": "inferred by the authors from failed/successful synthesis and number of charged/hydrophobic residues"}}}
{"smiles": "CC[C@H](C)[C@@H]1NC(=O)[C@H](CCC(=O)O)NC(=O)[C@H](CO)NC(=O)[C@H](Cc2ccc(O)cc2)NC(=O)[C@H](CCCNC(=N)N)NC(=O)[C@H](CCCCN)NC(=O)[C@H](C)NC(=O)[C@H](C(C)C)NC(=O)[C@H](Cc2c[nH]c3ccccc23)NC(=O)CNC(=O)[C@H]([C@@H](C)O)NC(=O)[C@@H]2CCCN2C(=O)[C@H]([C@@H](C)O)NC(=O)[C@H](CC(C)C)NC(=O)[C@H](C(C)C)NC(=O)[C@H]([C@@H](C)O)NC(=O)[C@H](CC(=O)O)NC1=O", "note": "[Peptide 16]", "values": [{"measurement": "Ratio of dead LLC cells to total LLC cells", "setting": "[1]; 10 μmol L^−1, 18 h (time from Fig. 8 legend), LLC:AP-CD8+ T cells 1:16, PBS control 12.7 ± 0.3, p < 0.05", "result": "43.8 ± 3.0", "unit": "%"}, {"measurement": "Ratio of dead LLC cells to total LLC cells", "setting": "[1]; 10 μmol L^−1, 36 h, not significant", "result": "68.2 ± 12.3", "unit": "%"}, {"measurement": "Effect in co-culture of LLC and antigen-primed T cells (in words)", "setting": "[1]", "result": "promoted the cytotoxic effect of antigen-primed CD8^+ T cells"}, {"measurement": "Effect in co-culture of LLC and antigen-primed T cells (in words)", "setting": "[1]; listed as cyc(EIDTVLTPTGWVAKRYS)", "result": "inhibited tumor growth"}, {"measurement": "Mice with tumor nodules (out of group)", "setting": "[2]; 10 mg kg^−1 per day, intraperitoneal, with JAWS-irrLLC, control 5 out of 6", "result": "4 out of 5"}, {"measurement": "Number of tumor nodules", "setting": "[2]; 10 mg kg^−1 per day, intraperitoneal, with JAWS-irrLLC, mean ± SD (n = 5–6), control JAWS-irrLLC only 3.50 ± 2.57", "result": "1.60 ± 0.80"}, {"measurement": "Tumor growth in vivo (in words)", "setting": "[2]; Lewis lung carcinoma allograft, mice, listed as cyc(EIDTVLTPTGWVAKRYS)", "result": "inhibited tumor growth"}, {"measurement": "Solubility (in words)", "setting": "[3]", "result": "much greater solubility"}]}
